{"sequences": {"note": "Protein sequences, listed by entry. Tags and fused reporters are not part of them.", "UniProt P27695, whole entry, looked up": "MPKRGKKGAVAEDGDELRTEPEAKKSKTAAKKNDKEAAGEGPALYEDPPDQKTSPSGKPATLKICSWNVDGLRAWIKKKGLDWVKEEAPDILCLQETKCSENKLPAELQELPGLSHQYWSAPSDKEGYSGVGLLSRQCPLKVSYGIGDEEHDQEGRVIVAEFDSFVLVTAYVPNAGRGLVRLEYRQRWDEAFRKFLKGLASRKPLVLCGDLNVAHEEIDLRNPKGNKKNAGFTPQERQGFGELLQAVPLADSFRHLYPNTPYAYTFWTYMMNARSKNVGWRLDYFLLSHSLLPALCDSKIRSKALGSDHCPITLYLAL"}, "source": "PubChem BioAssay AID2517", "about": "(National Center for Advancing Translational Sciences (NCATS), 2012)", "note": "About 1,200 (0.34%) of roughly 350,000 compounds were called active. Inconclusive means that the source gave no clear call. Such entries were picked first, then a sample of the others. Calls come from the whole dose curve; as a rule, active = well fitted inhibition curve with a large enough effect; inconclusive = small, poorly fitted or top-dose-only effect; inactive = no such curve, though single readings can be large or run the other way. Where the call is inconclusive, the potency comes from a doubtful curve fit. Potency is the fitted concentration of half-maximal effect.", "data": [{"target": "DNA repair nuclease/redox regulator APEX1 (Homo sapiens) (UniProt P27695)", "experiment": "qHTS Assay for Inhibitors of the Human Apurinic/apyrimidinic Endonuclease 1 (APE1); note: nearly all actives have a fitted effect of over 55% in size;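 for activity change, negative = inhibition: plate controls were vehicle for no effect and reference inhibitor for full effect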", "conditions": "recombinant APE1, TAMRA/BHQ-2 abasic DNA cleavage fluorescence; activity change, negative = inhibition: at 65.8 µM (top of the series)", "outline": "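Substrate: short duplex with […] THF abasic site, 5'-TAMRA and 3'-BHQ-2, 50 nM final. APE1 at 0.75 nM, preincubated 15 min RT with compound. Fluorescence increase from first to third read measured activity.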", "values": [{"smiles": "CC(=O)O[C@@H]1CC2CCC1(C)C2(C)C", "note": "(some centres undefined)", "Potency": "inactive"}, {"smiles": "NCCCC[C@@H]1NC(=O)[C@H](CCC(=O)O)NC(=O)c2cc([N+](=O)[O-])cc(I)c2SC[C@@H](C(=O)NCC(N)=O)NC1=O", "Potency": "inconclusive: 39.8 µM [inhibitor, single point]"}, {"smiles": "CC(C)c1c(C(=O)N/N=C/c2cccs2)nnn1-c1nonc1N", "activity change, negative = inhibition": "inconclusive: 17.4% [inhibitor]"}, {"smiles": "O=C(N=C1SCC(=O)N1c1ccccc1Cl)c1ccco1", "Potency": "inactive"}, {"smiles": "O=S(=O)(c1cc(C(F)(F)F)ccc1Cl)N1CCCCCC1", "Potency": "inconclusive: 39.8 µM [inhibitor, single point]"}, {"smiles": "Cc1cccc(CNc2ncnc3ccc(-c4ccc5c(ccn5C)c4)cc23)c1", "Potency": "inactive"}, {"smiles": "CCOc1ccc2[nH]c(=O)c(CN(Cc3ccco3)Cc3nnnn3Cc3ccccc3)cc2c1", "Potency": "inconclusive: 1.58 µM [inhibitor, full curve, poor fit]"}, {"smiles": "Cc1ccc2c(CC(=O)NNC(=O)c3ccncc3)coc2c1", "Potency": "inactive"}, {"smiles": "CC(C)c1ccccc1NC(=O)CNCCc1ccc(C(F)(F)F)cc1", "Potency": "inconclusive: 10 µM [inhibitor, full curve]"}, {"smiles": "Cc1ccc(CNC(=O)C2CC3Cn4c(nc5cc6ccccc6cc54)C3N2C)o1", "note": "(centres undefined)", "Potency": "inactive"}, {"smiles": "O=C1CCCC2=C1C1O[C@](c3ccsc3)(Cc3c1ccc1ccccc31)O2", "Potency": "inconclusive: 3.44 µM [inhibitor, single point]"}, {"smiles": "CCOc1ccccc1NC(=O)CSc1nc2nc(-c3cccs3)cc(C(F)(F)F)c2c(=O)[nH]1", "Potency": "inactive"}, {"smiles": "CNC(=S)N(CCc1c(C)[nH]c2ccc(C)cc12)Cc1ccc(OC)c(OC)c1", "Potency": "inconclusive: 6.31 µM [inhibitor, single point]"}, {"smiles": "c1ccc(OCCn2cnc3ccccc32)cc1", "Potency": "inconclusive: 6.31 µM [inhibitor, partial curve, poor fit]"}, {"smiles": "CCN1CCN(CC(O)COc2ccc3c(C)cc(=O)oc3c2)CC1", "note": "(centres undefined)", "Potency": "inconclusive: 7.94 µM [inhibitor, single point]"}, {"smiles": "CC(=O)Nc1ccc(NC(=O)/C(Cl)=C/c2ccccc2)cc1", "Potency": "inconclusive: 0.112 µM [inhibitor, partial curve, poor fit]"}, {"smiles": "Cc1ccc(NC(=O)CN(C)CC(=O)NC2CCCc3ccccc32)cc1", "note": "(centres undefined)", "Potency": "inconclusive: 44.7 µM [inhibitor, single point]"}, {"smiles": "COC(=O)c1ccc(N)cc1O", "Potency": "inconclusive: 44.7 µM [inhibitor, single point]"}, {"smiles": "O=C(COC(=O)COc1ccc(Cl)cc1Cl)Nc1cccnc1Cl", "Potency": "inconclusive: 44.7 µM [inhibitor, single point]"}, {"smiles": "O=C(Nc1cccc(Cl)c1)c1cc2c(=O)n3ccccc3nc2s1", "Potency": "inactive"}, {"smiles": "O=C1CC(N2CCC(O)(c3ccc(Br)cc3)CC2)C(=O)N1c1ccc(Cl)cc1", "note": "(centres undefined)", "Potency": "inconclusive: 44.7 µM [inhibitor, single point]"}, {"smiles": "CN(C)CCN(Cc1ccccc1)c1ccccn1", "Potency": "inactive"}, {"smiles": "O=C(N/N=C/C=C/c1ccco1)c1cccs1", "Potency": "inconclusive: 22.4 µM [inhibitor, partial curve]"}, {"smiles": "NC(CCCCCP(=O)(c1ccccc1)c1ccccc1)C(=O)O", "note": "(centres undefined)", "Potency": "active: 14.1 µM"}, {"smiles": "COCCNC(=O)c1ccc(CS(=O)(=O)c2ccccc2)o1", "Potency": "inconclusive: 6.31 µM [inhibitor, single point]"}, {"smiles": "CC(=O)Nc1c(F)c(F)c(F)c(F)c1F", "Potency": "inconclusive: 26.7 µM [inhibitor, single point]"}, {"smiles": "OCC1OC(/C=C\\c2ccccc2)C=CC1Oc1ccc2c(c1)OCO2", "note": "(centres undefined)", "Potency": "inconclusive: 3.16 µM [inhibitor, single point]"}, {"smiles": "Cn1nc2c3ccccc3n(Cc3ccc(F)cc3)c2nc1=S", "Potency": "inconclusive: 7.94 µM [inhibitor, single point]"}, {"smiles": "O=C(COC(=O)/C=C/c1ccco1)NCc1ccccc1", "Potency": "inconclusive: 39.8 µM [inhibitor, single point]"}, {"smiles": "C=C(C)CN(CC)C(=O)CSc1nc(O)cc(=O)n1C1CCCC1", "Potency": "inconclusive: 44.7 µM [inhibitor, single point]"}, {"smiles": "CC1(C)C(=O)OC(c2cccs2)C2(CCCCC2)C1=O", "note": "(centres undefined)", "Potency": "inconclusive: 20 µM [inhibitor, partial curve, poor fit]"}, {"smiles": "COc1ccc(CC(=O)OCC(=O)Nc2cccc(Br)c2)cc1", "Potency": "inconclusive: 44.7 µM [inhibitor, single point]"}, {"smiles": "O=c1[nH]c(CN2CCN(S(=O)(=O)/C=C/c3ccccc3)CC2)nc2ccccc12", "Potency": "inconclusive: 10 µM [inhibitor, partial curve]"}, {"smiles": "C=CCn1c(COc2cccc3cccnc23)nnc1SCC(=O)OC", "Potency": "inconclusive: 3.16 µM [inhibitor, partial curve, poor fit]"}, {"smiles": "COC(=O)c1cnc2c(C(F)(F)F)cccc2c1OC", "Potency": "inconclusive: 0.0282 µM [inhibitor, full curve, poor fit]"}, {"smiles": "N#CCCN(Cc1ccccc1)C(=O)c1cccs1", "Potency": "inactive"}, {"smiles": "O=[N+]([O-])c1ccc(-c2nnc(-c3ccccc3)c(N3CCOCC3)n2)cc1", "Potency": "inconclusive: 0.199 µM [inhibitor, full curve]"}, {"smiles": "COc1ccccc1/C=C/C=N/NC(=O)c1cc(-c2ccco2)[nH]n1", "Potency": "inconclusive: 35.5 µM [inhibitor, single point]"}, {"smiles": "O=C(CSc1ccc(-c2ccco2)nn1)NC1CCCCC1", "Potency": "inconclusive: 31.6 µM [inhibitor, single point]"}, {"smiles": "COc1cc2c(cc1OC)-c1cc3cc(OC)c(OC)cc3c(=O)n1CC2", "Potency": "inconclusive: 35.5 µM [inhibitor, single point]"}, {"smiles": "COc1ccccc1CN1C(=O)c2cccc3cccc(c23)C1=O", "Potency": "inactive"}, {"smiles": "COc1ccc(CCNC(=O)CSc2cn(Cc3cccc(C)c3)c3ccccc23)cc1OC", "Potency": "inconclusive: 4.47 µM [inhibitor, single point]"}, {"smiles": "CC(=O)c1ccc(S(=O)(=O)Nc2ccc(-c3ccc4nnc(C)n4n3)cc2)cc1", "Potency": "inconclusive: 35.5 µM [inhibitor, single point]"}, {"smiles": "O=C1[C@H]2CCn3c(=O)n(-c4ccccc4)c(=O)n3[C@H]2[C@H](O)[C@H]2O[C@@H]12", "Potency": "inconclusive: 5.01 µM [inhibitor, single point]"}]}]}
